We go through one molecule from doi:10.1101/2021.09.16.460650 (bioRxiv, 2021).

In this assay the target is N-terminally arginylated calreticulin (human (endogenous in DLD-1)) (UniProt P27797). Put plainly: non-reducing SDS-PAGE with western blot. A general note: Immunoblotting shows a protein as a band on a membrane.

These are yes or no findings as the source states them, for the method shown. Some entries that bind do so weakly or less than the wild type.

B1: N-terminally arginylated calreticulin (natural protein, human (endogenous in DLD-1), UniProt P27797 18-417, looked up)
chain: REPAVYFKEQFLDGDGWTSRWIESKHKSDFGKFVLSSGKFYGDEEKDKGLQTSQDARFYALSASFEPFSNKGQTLVVQFTVKHEQNIDCGGGYVKLFPNSLDQTDMHGDSEYNIMFGPDICGPGTKKVHVIFNYKGKNVLINKDIRCKDDEFTHLYTLIVRPDNTYEVKIDNSQVESGSLEDDWDFLPPKKIKDPDASKPEDWDERAKIDDPTDSKPEDWDKPEHIPDPDAKKPEDWDEEMDGEWEPPVIQNPEYKGEWKPRQIDNPDYKGTWIHPEIDNPEYSPDPSIYAYDNFGVLGLDLWQVKSGTIFDNFLITNDEAYAEEFGNETWGVTKAAEKQMKDKQDEEQRLKEEEEDKKRKEEEEAEDKEDDEDKDEDEEDEEDKEEDEEEDVPGQAKDEL
modifications: arginyl group added at the mature (signal sequence removed) NH2-terminus, Glu-18
As to B1, the binding entry is “binds”.
